# Some of the results follow. The main result of the screen is listed elsewhere. These columns were measured beside it and carry no call. Most of these compounds were active or inconclusive in the main read-out, so they are no random draw. Words in brackets tell the shape of the fitted curve; partial curves, single points and poor fits give uncertain potencies.
# Assay: qHTS Assay to Find Inhibitors of Chronic Active B-Cell Receptor Signaling
# Settings: ABC-DLBCL IkBa-CBG/CBR reporter, luminescence ratio (green luciferase fused to IkBa over red control in TMD8 lymphoma cells), 4 h
# How it was run: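 TMD8 human ABC-DLBCL cells with doxycycline-inducible IκBα–green luciferase fusion and unfused red luciferase, in 0.5% FBS medium; compounds up to 46 uM, 4 h at 37C. Green/red luminescence ratio, filter-overlap corrected, fitted to concentration-response curves.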
# [1] = measured here: CBR red luminescence, cell number
# [2] = measured here: IkBa-CBG green luminescence
SMILES,AC50 [1],AC50 [2]
O=C(c1ccc(N2CCCCC2)c([N+](=O)[O-])c1)N1CCN(c2ccccn2)CC1,"15.8 µM [rising, partial curve, poor fit]",
Cn1c(=O)cc(N2CCc3ccccc32)[nH]c1=O,"6.51 µM [falling, full curve]",
O=C(CNC(=O)c1ccccc1)OCC(=O)c1ccc(Cl)s1,"20.6 µM [rising, single point]","16.4 µM [falling, partial curve, poor fit]"
COc1ccccc1/C=N/Nc1nncc2ccccc12,"7.31 µM [falling, partial curve]",
Cc1ccc(NC(=O)C(c2ccccc2)N2CCN(CC(=O)NC3CC3)CC2)cc1Cl (stereo not given),"4.11 µM [rising, full curve, poor fit]",
COc1ccccc1OCC(=O)Nc1cc(Cl)ccc1N1CCCCC1,"2.06 µM [falling, full curve]",
Nc1nc(Nc2ccc(Cl)cc2Cl)nc(C(F)(F)F)n1,"6.51 µM [rising, single point]",
CN1C(=O)C(C)(C)c2cc(S(=O)(=O)N3CCN(c4ccc(F)cc4)CC3)ccc21,"35.5 µM [falling, single point]",
CC(C)(C)OC(=O)N/N=C\c1ccc([N+](=O)[O-])s1,"1.12 µM [rising, full curve, poor fit]",
CCC(C)N(C(=O)CSc1nnc(-c2cccs2)n1C1CC1)C1CCS(=O)(=O)C1 (stereo not given),"1.84 µM [rising, full curve, poor fit]",
Cc1ccc(-c2nnc(Oc3ccc(NC(=O)c4ccccc4)cc3)c3ccccc23)cc1,"0.103 µM [rising, full curve, poor fit]",
CCOC(=O)C(=Cc1ccc(Br)cc1)C(=O)OCC,"5.01 µM [falling, full curve, poor fit]","6.31 µM [rising, full curve, poor fit]"
CCCN(CCC)C(=O)Nc1ccc(F)cc1F,"12.6 µM [rising, partial curve, poor fit]",
Cc1ccc(-c2cc(C(=O)OCC(=O)N(C)C3CCS(=O)(=O)C3)c3ccccc3n2)o1 (stereo not given),"25.1 µM [falling, single point]",
Cc1ccc(-c2cc(C(=O)NC3CCCCC3)no2)cc1,"0.447 µM [falling, full curve, poor fit]",
CCCc1noc2c1C(c1ccoc1)C(C#N)=C(N)N2 (stereo not given),"6.31 µM [falling, single point]","35.5 µM [falling, partial curve, poor fit]"
CCOc1ccc2oc(C(=O)N(C)CC(=O)Nc3ccc(OCC)c(OCC)c3)c(C)c2c1,"1.03 µM [rising, full curve, poor fit]",

# Reference: PubChem BioAssay AID493014 (National Center for Advancing Translational Sciences (NCATS), 2011)
